Experimental findings from ChEMBL document CHEMBL2046269, “Phthalide and isocoumarin derivatives produced by an Acremonium sp. isolated from a mangrove Rhizophora apiculata” (2012) are described below.

Converted amounts (≈) assume the structure as drawn.

In the assay the test system is Candida albicans. Nature of the assay: Antifungal activity against Candida albicans NCPF 3153 after 15 hrs by colorimetric broth microdilution test. Format: functional. The settings on record: NCPF 3153, 15 h.

As usually defined, the MIC is the lowest concentration that inhibits growth of the organism. A lower MIC goes with greater potency. `C[C@@H]1[C@H](O)[C@@H](C)/C=C/C=C/C=C/C=C/C=C/C=C/C=C/[C@H](O[C@@H]2O[C@H](C)[C@@H](O)[C@H](N)[C@@H]2O)C[C@@H]2O[C@](O)(C[C@@H](O)C[C@@H](O)[C@H](O)CC[C@@H](O)C[C@@H](O)CC(=O)O[C@H]1C)C[C@H](O)[C@H]2C(=O)O` [AMPHOTERICIN B]: the MIC came out at 0.25 µg/mL (≈ 0.271 µM).
